For the assay, the target named is T1, Dihydrolipoamide S-acetyltransferase (DLAT), mouse, in ovaries (mouse (endogenous in mouse ovaries)) (UniProt Q8BMF4).
T1 sequence: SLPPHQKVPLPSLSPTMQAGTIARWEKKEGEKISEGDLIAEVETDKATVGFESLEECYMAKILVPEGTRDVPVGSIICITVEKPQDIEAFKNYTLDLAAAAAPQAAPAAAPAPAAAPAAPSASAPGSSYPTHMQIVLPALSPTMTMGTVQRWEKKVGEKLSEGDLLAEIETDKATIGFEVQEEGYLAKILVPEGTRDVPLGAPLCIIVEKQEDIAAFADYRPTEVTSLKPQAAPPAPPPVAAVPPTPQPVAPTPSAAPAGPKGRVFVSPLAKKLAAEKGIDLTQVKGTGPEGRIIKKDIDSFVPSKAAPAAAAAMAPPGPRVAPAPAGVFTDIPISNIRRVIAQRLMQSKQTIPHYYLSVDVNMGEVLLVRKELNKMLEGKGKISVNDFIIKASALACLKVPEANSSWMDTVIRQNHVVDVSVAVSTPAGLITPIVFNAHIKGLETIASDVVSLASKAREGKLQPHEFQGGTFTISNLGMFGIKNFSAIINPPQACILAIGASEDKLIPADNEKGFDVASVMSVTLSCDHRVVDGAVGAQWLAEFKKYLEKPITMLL
Description: co-IP; mice ovaries; DLAT antibody pull-down with rProtein A/G Magnetic IP/Co-IP Kit, Western blot. A general note: A western blot detects proteins with antibodies after separation by electrophoresis.

These are yes or no findings as the source states them, for the method shown. In cells and extracts the contact can be indirect. Some binding calls cover weakened binding; strength is not graded here.

B1: CASP3 protein, mouse, in ovaries (protein, UniProt P70677 1-277)
chain: MENNKTSVDSKSINNFEVKTIHGSKSVDSGIYLDSSYKMDYPEMGICIIINNKNFHKSTGMSSRSGTDVDAANLRETFMGLKYQVRNKNDLTREDILELMDSVSKEDHSKRSSFVCVILSHGDEGVIYGTNGPVELKKLTSFFRGDYCRSLTGKPKLFIIQACRGTELDCGIETDSGTDEEMACQKIPVEADFLYAYSTAPGYYSWRNSKDGSWFIQSLCSMLKLYAHKLEFMHILTRVNRKVATEFESFSLDSTFHAKKQIPCIVSMLTKELYFYH
For B1, the binding entry is reported as “binds”.
